The target in this assay is PC4 and SRSF1 interacting protein 1 (human (endogenous in HCC cells)) (UniProt O75475). The assay can be described thus: co-IP; cells lysed, proteins incubated with antibodies (PSIP1, Santacruz; c-Myc, Abcam), Protein-A/G magnetic beads, washing and elution, Western blot; Co-Immunoprecipitation Kit (Bersinbio). (In general: Immunoblotting shows a protein as a band on a membrane.)

Protein sequences, listed by entry. Tags and fused reporters are not part of them.
UniProt O75475: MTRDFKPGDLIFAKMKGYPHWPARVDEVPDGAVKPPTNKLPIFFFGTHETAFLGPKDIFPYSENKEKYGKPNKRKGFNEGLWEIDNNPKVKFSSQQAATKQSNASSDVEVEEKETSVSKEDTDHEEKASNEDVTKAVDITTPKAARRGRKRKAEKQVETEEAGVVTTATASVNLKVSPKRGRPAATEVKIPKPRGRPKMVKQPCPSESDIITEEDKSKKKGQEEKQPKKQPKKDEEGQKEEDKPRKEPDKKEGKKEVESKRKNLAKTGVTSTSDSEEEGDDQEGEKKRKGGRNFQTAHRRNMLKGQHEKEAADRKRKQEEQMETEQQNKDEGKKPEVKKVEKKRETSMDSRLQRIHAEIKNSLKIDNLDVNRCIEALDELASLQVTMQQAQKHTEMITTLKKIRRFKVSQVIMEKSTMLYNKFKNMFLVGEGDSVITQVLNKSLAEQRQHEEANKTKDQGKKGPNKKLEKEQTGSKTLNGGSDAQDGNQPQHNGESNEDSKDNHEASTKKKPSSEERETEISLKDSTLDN
UniProt P01106: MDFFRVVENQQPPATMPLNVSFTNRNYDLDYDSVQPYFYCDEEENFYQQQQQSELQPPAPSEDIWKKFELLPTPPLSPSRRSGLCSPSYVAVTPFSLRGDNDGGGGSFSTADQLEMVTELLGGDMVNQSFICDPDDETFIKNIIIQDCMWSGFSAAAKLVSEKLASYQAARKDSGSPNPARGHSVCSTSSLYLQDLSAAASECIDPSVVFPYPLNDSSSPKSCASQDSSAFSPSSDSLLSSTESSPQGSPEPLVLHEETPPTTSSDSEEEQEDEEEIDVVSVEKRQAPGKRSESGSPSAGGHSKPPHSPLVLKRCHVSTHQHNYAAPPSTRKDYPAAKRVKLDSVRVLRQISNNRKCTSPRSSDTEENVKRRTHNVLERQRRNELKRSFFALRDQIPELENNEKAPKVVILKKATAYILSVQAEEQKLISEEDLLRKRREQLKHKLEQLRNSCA

No constants are given. Whether binding was seen depends on the method and setting. In cells and extracts the contact can be indirect. Some results given as binding are weak or reduced against the parent protein; the word gives no strength.

c-Myc (from UniProt P01106 1-454): the binding result is given as “binds”.

The values are drawn from paper PMC12120768.
